In US20230037864A1 one finds binding data, which are given here for 1 molecule.

These are yes or no findings as the source states them, for the method shown. In cells and extracts the contact can be indirect. A result given as binding can be weak or reduced; the word gives no strength.

This test deals with ectodomain of the S protein of PEDV (GeneBank no. HC070225-S) (porcine epidemic diarrhea virus (PEDV)). Put plainly: pull-down (100 kDa MWCO spin column, SDS-PAGE) and SEC co-elution with anti-V5 western blotting. In general terms: In western blotting, separated proteins are transferred to a membrane and probed.

B1: recombinant scFv (scFv)
scFv: NIVLTQSPKSMSMSVGERVTLSCKASENVGTYVSWYQQKPKQSPKLLIYGTFNRYTGVPDRFTGSGSATDFTLTISSVQAEDLADYHCGQSYNYPFTFGSGTKLEIKGGGGSGGGGSGGGGSQVQLQQSGAELARPGTSVKMSCKASGYTFTNYMMHWIKQRPGQGLEWIGYINPSTGYTNYNQKFKDKATLTADKSSSTAYVQLNILTSEDSAVYYCATSTLITGDYWGQGTTLTVSSKGQDNSAG
In the case of B1, the binding entry is “binds”.
